Source: patent publication US11993575B1, “Ethyl [4,4-bis(4-bromophenyl)-2,5-dioxoimidazolidin-1-yl]acetate as an antimicrobial compound” (KING FAISAL UNIVERSITY, priority 2023, dated 2024)
For at least one compound, name, drawing or mass did not settle the structure.

Columns and labels:
Format in all cases: cell-based
[1] = tested on: Escherichia coli; assay: Antimicrobial testing by agar dilution, Escherichia coli; settings: E. Coli
Procedure: (§1) The antimicrobial properties of the ethyl [4,4-bis(4-bromophenyl)-2,5-dioxoimidazolidin-1-yl]acetate was studied by the method of agar dilution. Test solutions of each compound was prepared in concentration of 1% using dimethylformamide as a solvent then they are diluted in physiological solution to obtain the final experimental dilutions 1:100, 1:200, 1:400, 1:800. The effect of these substances are compared with furacillin in a controllable study. The testing microbes used were gram positive bacteria Staphylococcus aureus, gram negative bacteria Escherichia coli, Pseudomonas aeruginosa and Candida albicans fungi were taken. The experiments used for this survey were meat-pentonlu agar (EPA) for cultivation of bacteria and Saburo environment for fungi. Each experiment used 1 ml of test solution on each plate 500 min. Add 2 drops of emulsified with microbes feel. All experimental samples were taken from the agar after 10, 20, 40, 60 minutes in the environment on the basis of Patrk planted. Bacteria were cultivated at a temperature of 37° C. for 1 day and the mushroom was kept in a thermostat for […] at a temperature of 28° C. Then the results were checked.

[2] = tested on: Staphylococcus aureus; assay: Antimicrobial testing by agar dilution, Staphylococcus aureus; settings: St. Aereus
Procedure: as §1

[3] = tested on: Pseudomonas aeruginosa; assay: Antimicrobial testing by agar dilution, Pseudomonas aeruginosa; settings: Ps. aeruginosa
Procedure: as §1

[4] = tested on: Candida albicans; assay: Antimicrobial testing by agar dilution, Candida albicans
Procedure: as §1

[5] = dilution rate 1:100, exposure time 10 min
[6] = dilution rate 1:100, exposure time 20 min
[7] = dilution rate 1:100, exposure time 40 min
[8] = dilution rate 1:100, exposure time 60 min
[9] = dilution rate 1:200, exposure time 10 min
[10] = dilution rate 1:200, exposure time 20 min
[11] = dilution rate 1:200, exposure time 40 min
[12] = dilution rate 1:200, exposure time 60 min
[13] = dilution rate 1:400, exposure time 10 min
[14] = dilution rate 1:400, exposure time 20 min
[15] = dilution rate 1:400, exposure time 40 min
[16] = dilution rate 1:400, exposure time 60 min
[17] = dilution rate 1:800, exposure time 10 min
[18] = dilution rate 1:800, exposure time 20 min
[19] = dilution rate 1:800, exposure time 40 min
[20] = dilution rate 1:800, exposure time 60 min

Structure (SMILES): NC(=O)N/N=C/c1ccc([N+](=O)[O-])o1 [Furacilin]
- antimicrobial activity [1, 5]: −
- antimicrobial activity [1, 6]: −
- antimicrobial activity [1, 7]: −
- antimicrobial activity [1, 8]: −
- antimicrobial activity [1, 9]: +
- antimicrobial activity [1, 10]: +
- antimicrobial activity [1, 11]: +
- antimicrobial activity [1, 12]: +
- antimicrobial activity [1, 13]: +
- antimicrobial activity [1, 14]: +
- antimicrobial activity [1, 15]: +
- antimicrobial activity [1, 16]: +
- antimicrobial activity [1, 17]: +
- antimicrobial activity [1, 18]: +
- antimicrobial activity [1, 19]: +
- antimicrobial activity [1, 20]: +
- antimicrobial activity [2, 5]: −
- antimicrobial activity [2, 6]: −
- antimicrobial activity [2, 7]: −
- antimicrobial activity [2, 8]: −
- antimicrobial activity [2, 9]: +
- antimicrobial activity [2, 10]: +
- antimicrobial activity [2, 11]: +
- antimicrobial activity [2, 12]: +
- antimicrobial activity [2, 13]: +
- antimicrobial activity [2, 14]: +
- antimicrobial activity [2, 15]: +
- antimicrobial activity [2, 16]: +
- antimicrobial activity [2, 17]: +
- antimicrobial activity [2, 18]: +
- antimicrobial activity [2, 19]: +
- antimicrobial activity [2, 20]: +
- antimicrobial activity [3, 5]: +
- antimicrobial activity [3, 6]: +
- antimicrobial activity [3, 7]: +
- antimicrobial activity [3, 8]: +
- antimicrobial activity [3, 9]: +
- antimicrobial activity [3, 10]: +
- antimicrobial activity [3, 11]: +
- antimicrobial activity [3, 12]: +
- antimicrobial activity [3, 13]: +
- antimicrobial activity [3, 14]: +
- antimicrobial activity [3, 15]: +
- antimicrobial activity [3, 16]: +
- antimicrobial activity [3, 17]: +
- antimicrobial activity [3, 18]: +
- antimicrobial activity [3, 19]: +
- antimicrobial activity [3, 20]: +
- antimicrobial activity [4, 5]: −
- antimicrobial activity [4, 6]: −
- antimicrobial activity [4, 7]: +
- antimicrobial activity [4, 8]: +
- antimicrobial activity [4, 9]: +
- antimicrobial activity [4, 10]: +
- antimicrobial activity [4, 11]: +
- antimicrobial activity [4, 12]: +
- antimicrobial activity [4, 13]: +
- antimicrobial activity [4, 14]: +
- antimicrobial activity [4, 15]: +
- antimicrobial activity [4, 16]: +
- antimicrobial activity [4, 17]: +
- antimicrobial activity [4, 18]: +
- antimicrobial activity [4, 19]: +
- antimicrobial activity [4, 20]: +
